# The supplement of paper PMC10849652
# Chains of the proteins cited; added tags and fusions are not shown. Lines headed by an entry give the natural chain unless they say otherwise; changes in a name come on top.
# UniProt Q86WU2: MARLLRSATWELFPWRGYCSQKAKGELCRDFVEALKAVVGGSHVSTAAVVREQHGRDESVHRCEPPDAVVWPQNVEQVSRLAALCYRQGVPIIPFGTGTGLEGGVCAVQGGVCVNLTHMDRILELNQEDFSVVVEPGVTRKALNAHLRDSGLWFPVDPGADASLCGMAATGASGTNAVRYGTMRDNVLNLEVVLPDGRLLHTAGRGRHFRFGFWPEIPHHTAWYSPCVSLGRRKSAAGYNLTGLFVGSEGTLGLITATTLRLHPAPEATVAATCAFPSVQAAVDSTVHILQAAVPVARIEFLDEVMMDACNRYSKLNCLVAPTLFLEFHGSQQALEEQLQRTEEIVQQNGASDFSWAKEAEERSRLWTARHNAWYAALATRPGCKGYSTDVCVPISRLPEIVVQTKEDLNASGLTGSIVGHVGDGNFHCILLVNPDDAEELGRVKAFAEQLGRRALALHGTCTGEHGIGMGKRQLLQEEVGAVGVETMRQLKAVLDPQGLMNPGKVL
# UniProt O95835: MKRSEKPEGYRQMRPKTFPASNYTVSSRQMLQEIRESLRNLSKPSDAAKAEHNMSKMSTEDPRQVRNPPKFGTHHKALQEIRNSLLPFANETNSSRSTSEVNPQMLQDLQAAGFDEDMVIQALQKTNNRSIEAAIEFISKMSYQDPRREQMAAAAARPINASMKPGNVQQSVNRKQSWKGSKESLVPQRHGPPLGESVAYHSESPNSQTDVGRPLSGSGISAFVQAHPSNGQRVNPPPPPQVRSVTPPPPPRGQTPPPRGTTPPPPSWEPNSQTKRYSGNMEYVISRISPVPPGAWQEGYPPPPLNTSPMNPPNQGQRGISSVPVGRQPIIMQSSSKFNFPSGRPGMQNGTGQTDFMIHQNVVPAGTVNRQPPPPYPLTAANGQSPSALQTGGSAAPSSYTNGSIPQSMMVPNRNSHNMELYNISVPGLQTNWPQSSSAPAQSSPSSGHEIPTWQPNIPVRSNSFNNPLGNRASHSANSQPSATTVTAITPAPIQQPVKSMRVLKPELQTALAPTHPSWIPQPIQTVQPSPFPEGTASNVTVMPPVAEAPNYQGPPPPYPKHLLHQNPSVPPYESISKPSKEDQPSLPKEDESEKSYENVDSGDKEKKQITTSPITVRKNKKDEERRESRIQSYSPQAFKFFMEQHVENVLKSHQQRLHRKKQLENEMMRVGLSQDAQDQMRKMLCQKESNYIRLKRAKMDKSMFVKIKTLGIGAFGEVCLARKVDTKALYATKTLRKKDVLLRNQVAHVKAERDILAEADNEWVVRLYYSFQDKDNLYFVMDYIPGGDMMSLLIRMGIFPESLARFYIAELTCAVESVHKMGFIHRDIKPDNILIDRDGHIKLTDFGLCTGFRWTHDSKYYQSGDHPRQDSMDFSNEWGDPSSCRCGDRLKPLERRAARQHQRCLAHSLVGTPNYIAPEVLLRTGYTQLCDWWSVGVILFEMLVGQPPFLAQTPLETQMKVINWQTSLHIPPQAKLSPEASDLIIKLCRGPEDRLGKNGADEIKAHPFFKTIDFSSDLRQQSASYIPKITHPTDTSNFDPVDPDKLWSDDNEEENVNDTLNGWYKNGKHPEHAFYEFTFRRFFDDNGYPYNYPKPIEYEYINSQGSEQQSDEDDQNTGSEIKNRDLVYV
# UniProt O15243: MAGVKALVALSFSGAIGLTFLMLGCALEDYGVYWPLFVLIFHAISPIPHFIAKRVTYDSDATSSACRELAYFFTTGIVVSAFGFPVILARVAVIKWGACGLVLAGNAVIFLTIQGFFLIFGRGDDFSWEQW
# UniProt P02750: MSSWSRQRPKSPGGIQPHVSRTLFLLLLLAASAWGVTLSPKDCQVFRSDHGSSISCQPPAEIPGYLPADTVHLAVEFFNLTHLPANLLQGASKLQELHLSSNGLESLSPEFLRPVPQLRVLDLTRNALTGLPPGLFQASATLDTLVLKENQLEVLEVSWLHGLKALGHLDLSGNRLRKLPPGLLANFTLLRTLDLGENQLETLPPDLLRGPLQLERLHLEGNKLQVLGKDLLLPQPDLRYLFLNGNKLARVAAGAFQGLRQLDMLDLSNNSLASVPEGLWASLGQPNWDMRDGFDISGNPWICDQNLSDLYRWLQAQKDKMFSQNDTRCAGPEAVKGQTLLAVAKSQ
# UniProt Q6ZRR7: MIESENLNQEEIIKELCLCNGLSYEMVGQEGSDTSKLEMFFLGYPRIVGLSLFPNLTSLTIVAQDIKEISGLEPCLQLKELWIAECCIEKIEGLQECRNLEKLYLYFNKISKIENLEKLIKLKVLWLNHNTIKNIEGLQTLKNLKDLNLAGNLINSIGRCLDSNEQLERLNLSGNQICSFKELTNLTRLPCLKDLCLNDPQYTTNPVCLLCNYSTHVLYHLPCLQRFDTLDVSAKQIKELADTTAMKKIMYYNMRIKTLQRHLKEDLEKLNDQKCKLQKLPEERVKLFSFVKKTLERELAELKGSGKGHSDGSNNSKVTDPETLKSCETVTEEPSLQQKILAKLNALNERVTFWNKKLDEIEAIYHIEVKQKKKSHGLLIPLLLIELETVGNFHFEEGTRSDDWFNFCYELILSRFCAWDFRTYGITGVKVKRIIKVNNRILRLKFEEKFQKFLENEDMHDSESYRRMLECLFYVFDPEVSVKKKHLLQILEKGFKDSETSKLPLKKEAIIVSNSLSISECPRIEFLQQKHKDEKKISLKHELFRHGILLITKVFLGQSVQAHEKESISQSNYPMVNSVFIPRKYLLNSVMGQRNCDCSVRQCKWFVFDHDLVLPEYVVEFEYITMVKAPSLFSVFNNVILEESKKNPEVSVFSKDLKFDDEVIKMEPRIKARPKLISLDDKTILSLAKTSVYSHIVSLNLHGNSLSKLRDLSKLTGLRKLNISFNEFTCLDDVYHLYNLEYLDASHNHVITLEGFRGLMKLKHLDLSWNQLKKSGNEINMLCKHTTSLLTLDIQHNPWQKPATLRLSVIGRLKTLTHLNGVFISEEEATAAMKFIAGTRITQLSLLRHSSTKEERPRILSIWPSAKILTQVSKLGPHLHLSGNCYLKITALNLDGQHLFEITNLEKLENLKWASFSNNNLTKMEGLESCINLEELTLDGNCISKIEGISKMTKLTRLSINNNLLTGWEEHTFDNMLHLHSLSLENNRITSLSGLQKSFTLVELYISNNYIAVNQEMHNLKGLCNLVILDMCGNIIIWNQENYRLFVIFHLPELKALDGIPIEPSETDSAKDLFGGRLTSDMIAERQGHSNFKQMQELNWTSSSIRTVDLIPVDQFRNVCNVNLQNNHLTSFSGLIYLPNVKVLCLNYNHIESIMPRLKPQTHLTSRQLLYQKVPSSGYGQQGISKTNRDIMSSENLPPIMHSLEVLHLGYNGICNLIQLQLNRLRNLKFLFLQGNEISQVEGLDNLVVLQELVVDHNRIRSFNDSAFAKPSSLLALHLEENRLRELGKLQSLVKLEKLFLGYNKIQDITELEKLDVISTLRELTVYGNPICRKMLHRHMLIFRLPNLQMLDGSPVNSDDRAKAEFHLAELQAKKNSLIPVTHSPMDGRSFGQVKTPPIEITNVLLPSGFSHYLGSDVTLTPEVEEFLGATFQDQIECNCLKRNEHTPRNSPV
# UniProt Q5T3J3: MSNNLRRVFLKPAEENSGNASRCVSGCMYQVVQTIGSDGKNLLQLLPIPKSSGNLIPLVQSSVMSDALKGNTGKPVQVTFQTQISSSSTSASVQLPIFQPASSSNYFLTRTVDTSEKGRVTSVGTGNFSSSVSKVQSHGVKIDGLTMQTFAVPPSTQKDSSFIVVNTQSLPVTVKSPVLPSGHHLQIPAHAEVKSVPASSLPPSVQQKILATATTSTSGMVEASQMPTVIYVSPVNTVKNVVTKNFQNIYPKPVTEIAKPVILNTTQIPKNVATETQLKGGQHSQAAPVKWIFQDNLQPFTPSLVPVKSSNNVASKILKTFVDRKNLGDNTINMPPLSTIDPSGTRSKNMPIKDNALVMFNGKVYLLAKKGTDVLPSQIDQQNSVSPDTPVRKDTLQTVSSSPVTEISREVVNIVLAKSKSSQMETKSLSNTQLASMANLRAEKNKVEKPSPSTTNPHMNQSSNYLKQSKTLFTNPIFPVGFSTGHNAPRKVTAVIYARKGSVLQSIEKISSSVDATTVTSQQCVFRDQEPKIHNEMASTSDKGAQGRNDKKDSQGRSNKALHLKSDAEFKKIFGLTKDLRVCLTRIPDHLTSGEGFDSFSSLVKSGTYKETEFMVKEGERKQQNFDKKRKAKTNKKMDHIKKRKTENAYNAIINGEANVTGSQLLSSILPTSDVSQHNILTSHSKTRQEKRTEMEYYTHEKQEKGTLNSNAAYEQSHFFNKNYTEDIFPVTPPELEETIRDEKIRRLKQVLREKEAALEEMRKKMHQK
# UniProt Q52LA3: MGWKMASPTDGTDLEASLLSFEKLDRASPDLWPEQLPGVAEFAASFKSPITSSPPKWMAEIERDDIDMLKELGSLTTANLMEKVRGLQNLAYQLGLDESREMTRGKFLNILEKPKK
# UniProt O75197: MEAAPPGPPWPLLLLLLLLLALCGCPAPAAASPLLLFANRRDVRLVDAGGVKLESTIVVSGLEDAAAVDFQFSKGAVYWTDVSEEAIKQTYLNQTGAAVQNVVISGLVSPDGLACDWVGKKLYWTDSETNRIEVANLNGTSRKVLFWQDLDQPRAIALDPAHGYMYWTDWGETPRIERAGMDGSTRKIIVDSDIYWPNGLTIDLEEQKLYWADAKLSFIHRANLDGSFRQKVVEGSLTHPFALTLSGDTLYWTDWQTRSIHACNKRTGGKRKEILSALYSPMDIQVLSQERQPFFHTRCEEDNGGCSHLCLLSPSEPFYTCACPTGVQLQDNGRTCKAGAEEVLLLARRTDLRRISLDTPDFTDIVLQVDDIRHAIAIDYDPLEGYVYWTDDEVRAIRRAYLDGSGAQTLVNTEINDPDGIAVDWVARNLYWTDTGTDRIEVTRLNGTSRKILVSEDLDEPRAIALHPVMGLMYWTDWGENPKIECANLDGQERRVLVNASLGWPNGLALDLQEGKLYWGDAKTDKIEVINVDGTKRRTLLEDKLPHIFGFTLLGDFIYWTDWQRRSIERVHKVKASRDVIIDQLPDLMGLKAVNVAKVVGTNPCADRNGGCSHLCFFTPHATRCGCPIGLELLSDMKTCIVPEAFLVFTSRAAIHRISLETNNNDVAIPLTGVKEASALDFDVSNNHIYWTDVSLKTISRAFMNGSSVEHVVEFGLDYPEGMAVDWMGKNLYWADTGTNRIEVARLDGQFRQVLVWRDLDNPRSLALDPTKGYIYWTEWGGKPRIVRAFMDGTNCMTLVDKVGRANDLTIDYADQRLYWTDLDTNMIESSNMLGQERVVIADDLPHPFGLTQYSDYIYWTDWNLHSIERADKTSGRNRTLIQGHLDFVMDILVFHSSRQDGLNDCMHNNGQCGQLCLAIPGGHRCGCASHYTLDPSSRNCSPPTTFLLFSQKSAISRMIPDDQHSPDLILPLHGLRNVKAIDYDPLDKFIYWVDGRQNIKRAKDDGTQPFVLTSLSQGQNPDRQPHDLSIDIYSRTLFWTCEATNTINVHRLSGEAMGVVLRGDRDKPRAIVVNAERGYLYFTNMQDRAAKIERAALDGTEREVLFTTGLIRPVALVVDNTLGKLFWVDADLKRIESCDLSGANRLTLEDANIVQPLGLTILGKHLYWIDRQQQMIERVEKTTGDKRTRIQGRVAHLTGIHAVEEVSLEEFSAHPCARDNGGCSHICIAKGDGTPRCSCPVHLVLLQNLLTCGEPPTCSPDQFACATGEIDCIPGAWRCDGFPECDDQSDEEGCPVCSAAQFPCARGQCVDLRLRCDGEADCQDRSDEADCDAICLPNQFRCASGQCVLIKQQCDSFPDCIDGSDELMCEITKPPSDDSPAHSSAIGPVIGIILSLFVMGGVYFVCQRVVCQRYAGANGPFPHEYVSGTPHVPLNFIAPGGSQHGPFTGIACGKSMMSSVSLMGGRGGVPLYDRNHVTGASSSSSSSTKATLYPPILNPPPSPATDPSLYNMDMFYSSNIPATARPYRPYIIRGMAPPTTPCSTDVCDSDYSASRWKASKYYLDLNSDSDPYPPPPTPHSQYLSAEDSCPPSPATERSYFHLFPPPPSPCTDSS
# UniProt Q53QV2: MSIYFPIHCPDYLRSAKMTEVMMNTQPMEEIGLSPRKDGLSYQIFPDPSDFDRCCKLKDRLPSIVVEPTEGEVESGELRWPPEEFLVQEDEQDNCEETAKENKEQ
# UniProt P83369: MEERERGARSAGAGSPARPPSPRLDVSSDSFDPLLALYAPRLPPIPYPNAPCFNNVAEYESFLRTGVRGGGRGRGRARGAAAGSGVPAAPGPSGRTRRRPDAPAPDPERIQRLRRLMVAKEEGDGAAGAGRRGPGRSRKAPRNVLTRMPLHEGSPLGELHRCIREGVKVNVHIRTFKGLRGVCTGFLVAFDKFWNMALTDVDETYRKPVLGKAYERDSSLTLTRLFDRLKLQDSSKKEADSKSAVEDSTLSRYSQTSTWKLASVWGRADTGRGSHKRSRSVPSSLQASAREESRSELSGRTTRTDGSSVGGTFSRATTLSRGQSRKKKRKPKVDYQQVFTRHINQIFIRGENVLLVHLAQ
# The other results are listed elsewhere or left out.
# Columns and labels:
# Experiment in all cases: log2 fold change, soluble protein after heating vs DMSO (PISA); higher = thermal stabilisation; K562 lysate, 10 uM; active = over 0.2 and 3.5 SD of the protein, either way, in both replicates (recomputed)
# [1] = compound: C1=CC=C(C=C1)[C@H](COC2=CC3=C(C=C2)NC(=O)N3)NC(=O)C4=CC=CN(C4=O)CC5=CC(=C(C=C5)F)F
# How it was run: (§1)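 K562 pellets were dounce-homogenised in PBS pH 7.4 containing 1 mM MgCl2, and the crude extract, at 1 mg/mL protein, was exposed to 10 μM compound for 30 min. Aliquots were heated for 3 min across 48°C-58°C, pooled, brought to 0.5% NP-40 at 4°C and spun at 21,000xg for 90 min, with the supernatant taken as soluble protein. TMTpro 16plex LC-MS/MS with equalised channel sums quantified that protein. Values are log-two fold changes in thermal stability relative to solvent controls, taken from duplicates.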
# [2] = compound: CC1=C(SC2=C1C(=N[C@H](C3=NN=C(N32)C)CC(=O)N)C4=CC=C(C=C4)Cl)C
# How it was run: as §1
# [3] = compound: c1ccc([C@@H]2C[C@H]2NC2CCNCC2)cc1
# How it was run: as §1
# [4] = compound: CC1=C2C(=CC=C1)N=C(N(C2=O)C3=CC=CC=C3C)CN4C=NC5=C(N=CN=C54)N
# How it was run: as §1
# [5] = compound: Cc1sc2c(c1C)C(c1ccc(Cl)cc1)=N[C@@H](CC(=O)OC(C)(C)C)c1nnc(C)n1-2
# How it was run: as §1
target,measurement,setting,value
LDHD (UniProt Q86WU2),log2 fold change,[1],inactive: 0.182
same,log2 fold change,[2],inactive: -0.073
same,log2 fold change,[3],inactive: -0.239
LCN2 (UniProt P80188),log2 fold change,[4],inactive: 0.194
LRRC8C (UniProt E9PHY6),log2 fold change,[4],inactive: 0.067
LRIG2 (UniProt O94898),log2 fold change,[4],inactive: -0.078
same,log2 fold change,[5],inactive: -0.117
same,log2 fold change,[3],inactive: -0.095
LMBR1 isoform 3 (UniProt Q8WVP7),log2 fold change,[1],inactive: -0.046
same,log2 fold change,[2],inactive: 0.064
same,log2 fold change,[3],inactive: -0.068
LATS1 (UniProt O95835),log2 fold change,[5],inactive: -0.031
same,log2 fold change,[3],inactive: 0.149
LSR isoform 3 (UniProt Q86X29),log2 fold change,[3],inactive: 0.117
LEMD3 (UniProt Q9Y2U8),log2 fold change,[1],inactive: 0.223
same,log2 fold change,[2],inactive: 0.227
same,log2 fold change,[3],inactive: 0.034
LEPROT (UniProt O15243),log2 fold change,[1],inactive: 0.049
same,log2 fold change,[2],inactive: -0.009
same,log2 fold change,[3],inactive: -0.161
LRG1 (UniProt P02750),log2 fold change,[1],inactive: -0.024
same,log2 fold change,[2],inactive: 0.092
same,log2 fold change,[3],inactive: -0.004
LONRF2 (UniProt Q1L5Z9),log2 fold change,[5],inactive: -0.114
same,log2 fold change,[3],inactive: 0.033
LRRCC1 (UniProt Q9C099),log2 fold change,[4],inactive: 0.059
same,log2 fold change,[5],inactive: 0.082
LRRC42 (UniProt Q9Y546),log2 fold change,[4],inactive: 0.02
same,log2 fold change,[5],inactive: 0.037
same,log2 fold change,[3],inactive: 0.088
LRPPRC (UniProt H7C3W8),log2 fold change,[4],inactive: 0.219
LRFN4 (UniProt Q6PJG9),log2 fold change,[4],inactive: -0.015
same,log2 fold change,[5],inactive: -0.182
same,log2 fold change,[3],inactive: 0.025
LDHA (UniProt F5GZQ4),log2 fold change,[1],inactive: -0.112
same,log2 fold change,[2],inactive: 0.159
same,log2 fold change,[3],inactive: -0.132
LRRC9 (UniProt Q6ZRR7),log2 fold change,[4],inactive: 0.008
same,log2 fold change,[3],inactive: 0.209
LRIF1 (UniProt Q5T3J3),log2 fold change,[4],inactive: -0.072
same,log2 fold change,[5],inactive: 0.048
same,log2 fold change,[3],inactive: -0.071
LIN52 (UniProt Q52LA3),log2 fold change,[5],inactive: 0.111
LPGAT1 (UniProt Q92604),log2 fold change,[5],inactive: -0.197
same,log2 fold change,[3],inactive: 0.215
LITAF (UniProt Q99732),log2 fold change,[5],inactive: -0.028
LRP5 (UniProt O75197),log2 fold change,[5],inactive: -0.12
LBH (UniProt Q53QV2),log2 fold change,[5],inactive: -0.01
same,log2 fold change,[3],inactive: 0.02
LONP2 (UniProt Q86WA8),log2 fold change,[4],inactive: 0.045
same,log2 fold change,[3],inactive: -0.232
LRRC8E (UniProt Q6NSJ5),log2 fold change,[4],inactive: -0.027
same,log2 fold change,[3],inactive: -0.029
LNX1 (UniProt Q8TBB1),log2 fold change,[5],inactive: -0.036
LSM11 (UniProt P83369),log2 fold change,[4],inactive: 0.285
same,log2 fold change,[5],inactive: -0.045
same,log2 fold change,[3],inactive: -0.089
LRRC45 (UniProt Q96CN5),log2 fold change,[5],inactive: 0.059
LRP1 (UniProt Q07954),log2 fold change,[4],inactive: 0.125

# At a glance, some entries already given.
target,measurement,setting,value
LMBR1 isoform 3 (UniProt Q8WVP7),log2 fold change,[3],inactive: -0.068
LATS1 (UniProt O95835),log2 fold change,[5],inactive: -0.031
same,log2 fold change,[3],inactive: 0.149
LSR isoform 3 (UniProt Q86X29),log2 fold change,[3],inactive: 0.117
